Screen size: about 350,000 compounds; about 220 (0.063%) were called active. This list was built around the results that the source calls inconclusive (neither active nor inactive); the mix of calls is not that of the screen. The call rests on the fitted dose curve; in most records, active means well fitted activation curve with a large enough effect; inconclusive means small, poorly fitted or top-dose-only effect; inactive means no such curve, though single readings can be large or run the other way. A potency beside an inconclusive call is a rough fit, not a confirmed value.
assay: qHTS for Activators of Integrin-Mediated Alleviation for Muscular Dystrophy; details: alpha7betagal myoblasts, beta-gal FDG fluorescence, 48 h; activation: at 38.3 µM (top of the series); further: nearly all actives have a fitted effect of over 60% in size;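 on activation: 100% = response of the positive control SU9516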
From the text: Integrins are a diverse family of transmembrane cell surface receptors that mediate interactions between cells and the extracellular matrix. These heterodimeric proteins are composed of alpha and beta subunits and the a7b1 interacts with laminin in the extracellular matrix and actin of the cell cytoskeleton. Both chains contribute to ligand binding, but the alpha chain mediates the specificity of the interaction. The alpha7beta1 integrin is a major laminin receptor in skeletal, cardiac and vascular smooth muscle. Mutations in the alpha7 integrin gene are responsible for muscular dystrophy in both humans and mice. The alpha7beta1 integrin is also a major modifier of muscle disease progression in various muscle diseases including Duchenne muscular dystrophy, Fukuyama muscular dystrophy and merosin deficient congenital muscular dystrophy type 1A. […] Transcriptional regulation of the alpha7 integrin gene is poorly understood and probably involves multiple transcription factors. The goal of identifying small molecules that enhance alpha7 integrin expression is two-fold: firstly, such molecules would help us gain insight into the complex transcriptional control of alpha7 integrin. It is known that alpha7 integrin expression is tightly controlled during various stages of development, disease and in response to external stimuli. The second goal of the project is to translate the above finding into a therapeutic strategy for muscular dystrophy. […] Thus this project aims to discover small molecule probes that would not only help in gaining a better understanding of the complex regulatory mechanism of alpha7 integrin expression, but also lead to development of pharmacological agents to fight muscular dystrophy. NIH Chemical Genomics Center [NCGC] NIH Molecular Libraries Probe Centers Network [MLPCN] MLPCN Grant: NS058429 Assay Submitter (PI): Dean Burkin, University of Nevada School of Medicine
A total of 250 alpha7betagal+/- myoblasts at passage 13 were dispensed using a mulitdrop from Thermo into black low base tissue culture treated microclear aurora plates in 6 ul media containing DMEM without phenol, 5% FBS, 1x GluMax and 1x Penicillin/Streptomycin. The plates were incubated 16-24 hr at 37C, 5% CO2, 95% humidity covered with low evaporation stainless steel lids from Kalypsys. Compounds were then dispensed using a Kalypsys pintool to deliver 23 nl/well compounds in DMSO (diluted into 6 uL resulting in a 1:260 dilution of compound). The control compound used was the cdk2 inhibitor SU9516 from Tocirs (found in the initial LOPAC screen). The plates were incubated for 48 hours at 37C, 5% CO2, 95% humidity using the same stainless steel lids. After incubation with compound, 5 ul of the media was aspirated using the Kalypsys washer/dispenser and 3 ul of the Mammalian Protein Extraction Reagent (MPER) lysis buffer (Thermo Fisher) was added. The plates were spun at 2000 rpms to remove bubbles and an initial capture was acquired on the Viewlux (Perkin Elmer) with exciation at 480 nm and emission at 540 nm for 25 seconds to omit any auto fluorescent compounds. The plates were then incubated for 10 minutes at room temperature. After incubation, 3 ul of 125 uM Fluorescein di-galactoside (FDG) (Marker Gene Technologies) diluted in PBS with 2 mM MgCl2 and 0.2% betamercaptoethanol (BME) was added, the plates were spun at 2000 rpms and incubated for 30 minutes at room temperature. The plates were again read on the Viewlux with exciation at 480 nm and emission at 540 nm for 25 seconds.
Potency means the concentration at half of the fitted maximal effect.

Potency, inactive:
Cc1nn(C)c(=S)n1-c1ccc(Cl)cc1
CCOc1cc2[nH]c(=O)n(CCCN3CCCC3=O)c(=O)c2cc1OCC
CC1CCN(S(=O)(=O)c2ccc(NC(=O)c3ccccc3F)cc2)CC1
O=C(c1ccc2c(c1)OCO2)C1CCCN(Cc2ccc(OC(F)F)cc2)C1 (stereo not given)
CN1CCCN(S(=O)(=O)c2ccccc2)c2nc3ccccc3nc21
COc1ccccc1/C=C/C(=O)NC(=S)NCC1CCCO1 (stereo not given)
CCC1CCCCN1CC(=O)c1c(C)[nH]c2cc(C)ccc12 (stereo not given)
COc1ccc(NC(=O)c2ccccc2C)cc1
O=[N+]([O-])c1ccc(NCc2ccncc2)cc1
COc1ccccc1-c1nnc(NC(=O)C2CCCN2S(=O)(=O)c2cccs2)o1 (stereo not given)
CCCCCCn1c(=O)n2n(c1=O)C[C@]1(OC(=O)Nc3cccs3)CN(S(=O)(=O)c3ccc(C)cc3)C[C@]1(O)C2
COc1ccc(CCNC(=O)c2ccc(-c3ccc([N+](=O)[O-])cc3Cl)o2)cc1
COc1ccccc1C1=CC(=O)C[C@H](c2ccc(Cl)cc2)C1

Potency, inconclusive:
CCOc1cc(S(=O)(=O)Nc2cc(C)cc(C)c2)ccc1Cl 3.16 µM [activator, partial curve, poor fit]
CC1CCN(S(=O)(=O)c2ccc3c(c2)N(CC(=O)NCCCN2CCCCC2C)C(=O)CS3)CC1 (stereo not given) 2.82 µM [activator, single point]
Cc1c(NC(=O)COC(=O)c2cccn2C)c(=O)n(-c2ccccc2)n1C 5.01 µM [activator, single point]
CC(NC(=O)CN1C(=O)c2ccccc2C1=O)c1ccccc1 (stereo not given) 6.31 µM [activator, partial curve, poor fit]
O=C(Cn1cncc1-c1ccc([N+](=O)[O-])cc1)Nc1cccc2ccccc12 25.1 µM [activator, single point]
CC(C)Oc1cccc(-c2cc(C(=O)NN3CCOCC3)c3ccccc3n2)c1 4.47 µM [activator, single point]
Cc1ccc(C)c(N(Cc2cc3ccc(C)cc3[nH]c2=O)C(=O)c2ccco2)c1 1.78 µM [activator, partial curve, poor fit]
CCc1ccccc1N(CC(=O)NCC1CCCO1)C(=O)CCC(=O)Nc1nccs1 (stereo not given) 11.2 µM [activator, single point]
COC(=O)CSc1nc(NC#N)nc(NC(C)(C)C)n1 5.01 µM [activator, single point]
O=C(CNC(=O)C12CC3CC(CC(C3)C1)C2)OCc1ccc(F)cc1Cl 10 µM [activator, single point]
COc1coc(C(O)C[N+](=O)[O-])cc1=O (stereo not given) 2.51 µM [activator, partial curve, poor fit]
COc1ccc(NC(=O)CSc2ccc3nnc(CCNC(=O)c4ccccc4)n3n2)cc1OC 2.51 µM [activator, single point]
O=C(NCCc1cnc[nH]1)Nc1cccc(C(F)(F)F)c1 6.31 µM [activator, single point]
CCOc1ccc(N2CC(C(=O)Nc3ccccc3OC)CC2=O)cc1 (stereo not given) 4.47 µM [activator, single point]
c1coc(CN2CNc3nc4ccccc4n3C2)c1 2.82 µM [activator, single point]
Fc1cccc(Cl)c1CSc1ccc(-c2cccnc2)nn1 28.2 µM [activator, single point]
COc1ccc(CNC(=O)c2cc(C)nn2-c2ccccc2)cc1 0.501 µM [activator, full curve, poor fit]
Cn1c(=S)n(C)c2ccccc21 14.1 µM [activator, single point]
Cc1cccc2sc(NC(=O)CSCc3ccccc3)nc12 2.82 µM [activator, partial curve]
O=C(CN1C(=O)NC(c2ccccc2)(c2ccccc2)C1=O)NCc1ccccc1 28.2 µM [activator, single point]
CCOC(=O)c1c(S(=O)(=O)NCc2cccs2)c(C)n(C)c1C 0.794 µM [activator, single point]
CS(=O)(=O)c1ccc(NC(=O)C2CCCN(C(=O)c3ccc(Cl)cc3)C2)cc1 (stereo not given) 11.2 µM [activator, partial curve, poor fit]
Fc1ccc(N/N=C(/c2ccccc2)c2ccccn2)cc1 2.82 µM [activator, partial curve, poor fit]
Cc1cc(-c2ccc(C)c(S(=O)(=O)NCC3CCN(Cc4cccc(F)c4)CC3)c2)on1 1.41 µM [activator, single point]
COC(=O)C1=C(C)NC(=O)CC1c1ccccc1F (stereo not given) 5.01 µM [activator, single point]
COc1ccc(CCNC(=O)Cc2ccccc2)cc1OC 7.08 µM [activator, partial curve, poor fit]
CNn1cnc2ccsc2c1=O 2.24 µM [activator, partial curve, poor fit]
CC(=O)c1c(C)[nH]c(C(=O)OCc2csc(CC(=O)Nc3ccccc3C)n2)c1C 0.891 µM [activator, full curve, poor fit]
COc1ccc(C(=O)N2CCN(CCc3ccccn3)CC2)cc1 0.501 µM [activator, full curve, poor fit]
COc1ccc(C2=NOC(COc3ccc([N+](=O)[O-])cc3)C2)cc1 (stereo not given) 1 µM [activator, partial curve, poor fit]

Quoted at random: 3 compounds from above, in no set order.
Potency, inconclusive:
CCOC(=O)c1c(S(=O)(=O)NCc2cccs2)c(C)n(C)c1C 0.794 µM [activator, single point]
COc1ccc(C2=NOC(COc3ccc([N+](=O)[O-])cc3)C2)cc1 (stereo not given) 1 µM [activator, partial curve, poor fit]
CCc1ccccc1N(CC(=O)NCC1CCCO1)C(=O)CCC(=O)Nc1nccs1 (stereo not given) 11.2 µM [activator, single point]

Next part.

Potency, active:
COCCSc1ccccc1C(=O)Nc1cc(C)cc(C)c1 4.47 µM

activation, inconclusive:
COC(=O)/C(=C1/Oc2ccc(C)cc2S1)C(F)(F)F 59.3% [activator]

— PubChem BioAssay AID624291 (National Center for Advancing Translational Sciences (NCATS), 2012)
